Assay results from patent publication US20090208416A1.
Results are given in words; binding and its absence hold for the method and conditions named. Some entries that bind do so weakly or less than the wild type.

The chains behind the UniProt entries cited, without tags or fusion partners. Where a name states a change or a piece, a line headed by the entry shows the natural chain unless it says otherwise. A line that says so, or that is headed by a name, gives the form on record, which may keep a tag or linker.
UniProt Q9MZJ3: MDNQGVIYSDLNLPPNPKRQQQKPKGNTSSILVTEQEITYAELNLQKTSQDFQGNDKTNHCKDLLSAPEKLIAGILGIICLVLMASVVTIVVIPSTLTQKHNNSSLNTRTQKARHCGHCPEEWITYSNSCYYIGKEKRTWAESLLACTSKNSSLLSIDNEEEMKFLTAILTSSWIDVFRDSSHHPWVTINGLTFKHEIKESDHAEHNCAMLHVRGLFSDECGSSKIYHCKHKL
NKG2A on cynomolgus monkey NK cells (Q68VD2, form named): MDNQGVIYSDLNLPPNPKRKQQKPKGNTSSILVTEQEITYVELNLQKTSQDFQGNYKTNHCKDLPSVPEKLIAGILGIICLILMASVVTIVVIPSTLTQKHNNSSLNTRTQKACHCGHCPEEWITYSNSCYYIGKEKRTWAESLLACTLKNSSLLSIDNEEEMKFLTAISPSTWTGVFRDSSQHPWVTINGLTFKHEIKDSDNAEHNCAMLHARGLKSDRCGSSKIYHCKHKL

Assays:
[1] = target: NKG2A on rhesus monkey (Macaca mulatta) NK cells (rhesus monkey (Macaca mulatta)) (UniProt Q9MZJ3); test: flow cytometry on NK cells
[2] = target: NKG2A on cynomolgus monkey NK cells (cynomolgus monkey) (UniProt Q68VD2); test: flow cytometry on NK cells, PE-GaM
[3] = target: NKG2A on rhesus monkey (Macaca mulatta) NK cells (rhesus monkey (Macaca mulatta)) (UniProt Q9MZJ3); test: flow cytometry, whole blood NK cells, PE-GaM
[4] = target: NKG2A on cynomolgus monkey NK cells (cynomolgus monkey) (UniProt Q68VD2); test: flow cytometry, cynomolgus bulk NK cells, mAb 1 ug/ml, PE-GaM
[5] = target: NKG2A on cynomolgus monkey NK cells (cynomolgus monkey) (UniProt Q68VD2); test: flow cytometry on cynomolgus NK cells (FIG. 4)

Measured: binding

B1: Z270 anti-NKG2A monoclonal antibody (antibody, V domains shown)
VH: QVQLQQPGAELVRPGASVKLSCKASGYTFTSYWMNWVKQRPEQGLQWIGRIDPYDSETHYSQKFKDKAILTVDKSSSTAYMRLSSLTSEDSAVYYCARGGYDFDVGTLYWFFDVWGAGTTVTVS
VL: DIQMTQSPASLSASVGETVTITCRASENIYSYLAWYQQKQGKSPQFLVYNAKTLAEGVPSRFSGSGSGTQFSLKINSLQPEDFGSYYCQHHYGTPRTFGGGTKLEIK
binds: all assays above
